doi:10.1101/2024.03.04.583404
These are yes or no findings as the source states them, for the method shown. Binding seen in cells or lysates may run through a third protein. A yes stands for co-enrichment or nearness to the bait. Other partners may have been found. Sequences can lack the tags named with a protein.

Protein sequences, listed by entry. Tags and fused reporters are not part of them. Lines headed by an entry give the natural chain unless they say otherwise; changes in a name come on top.
UniProt Q18224: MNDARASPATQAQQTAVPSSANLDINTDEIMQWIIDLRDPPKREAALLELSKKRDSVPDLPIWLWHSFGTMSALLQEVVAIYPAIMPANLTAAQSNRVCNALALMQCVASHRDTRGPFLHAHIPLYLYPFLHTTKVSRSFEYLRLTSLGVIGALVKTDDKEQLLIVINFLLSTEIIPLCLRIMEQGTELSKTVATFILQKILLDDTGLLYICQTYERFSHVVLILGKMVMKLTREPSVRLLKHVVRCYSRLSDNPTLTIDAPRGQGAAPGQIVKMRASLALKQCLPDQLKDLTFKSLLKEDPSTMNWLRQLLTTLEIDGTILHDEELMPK
UniProt Q21740: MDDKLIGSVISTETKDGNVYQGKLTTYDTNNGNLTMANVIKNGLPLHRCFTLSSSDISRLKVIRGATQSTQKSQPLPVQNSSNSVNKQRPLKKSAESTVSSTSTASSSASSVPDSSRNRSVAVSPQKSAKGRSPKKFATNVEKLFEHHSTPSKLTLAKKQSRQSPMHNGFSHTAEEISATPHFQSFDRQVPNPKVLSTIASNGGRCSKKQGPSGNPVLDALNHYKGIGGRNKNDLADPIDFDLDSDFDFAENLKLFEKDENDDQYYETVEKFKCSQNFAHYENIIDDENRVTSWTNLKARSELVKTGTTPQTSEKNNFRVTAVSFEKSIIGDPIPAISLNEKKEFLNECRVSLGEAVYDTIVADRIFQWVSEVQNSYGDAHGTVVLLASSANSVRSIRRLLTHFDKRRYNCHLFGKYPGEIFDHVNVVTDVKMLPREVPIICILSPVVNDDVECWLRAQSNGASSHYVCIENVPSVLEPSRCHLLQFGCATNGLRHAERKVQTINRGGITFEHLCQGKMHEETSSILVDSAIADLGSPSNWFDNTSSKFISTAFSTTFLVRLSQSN
UniProt Q20937: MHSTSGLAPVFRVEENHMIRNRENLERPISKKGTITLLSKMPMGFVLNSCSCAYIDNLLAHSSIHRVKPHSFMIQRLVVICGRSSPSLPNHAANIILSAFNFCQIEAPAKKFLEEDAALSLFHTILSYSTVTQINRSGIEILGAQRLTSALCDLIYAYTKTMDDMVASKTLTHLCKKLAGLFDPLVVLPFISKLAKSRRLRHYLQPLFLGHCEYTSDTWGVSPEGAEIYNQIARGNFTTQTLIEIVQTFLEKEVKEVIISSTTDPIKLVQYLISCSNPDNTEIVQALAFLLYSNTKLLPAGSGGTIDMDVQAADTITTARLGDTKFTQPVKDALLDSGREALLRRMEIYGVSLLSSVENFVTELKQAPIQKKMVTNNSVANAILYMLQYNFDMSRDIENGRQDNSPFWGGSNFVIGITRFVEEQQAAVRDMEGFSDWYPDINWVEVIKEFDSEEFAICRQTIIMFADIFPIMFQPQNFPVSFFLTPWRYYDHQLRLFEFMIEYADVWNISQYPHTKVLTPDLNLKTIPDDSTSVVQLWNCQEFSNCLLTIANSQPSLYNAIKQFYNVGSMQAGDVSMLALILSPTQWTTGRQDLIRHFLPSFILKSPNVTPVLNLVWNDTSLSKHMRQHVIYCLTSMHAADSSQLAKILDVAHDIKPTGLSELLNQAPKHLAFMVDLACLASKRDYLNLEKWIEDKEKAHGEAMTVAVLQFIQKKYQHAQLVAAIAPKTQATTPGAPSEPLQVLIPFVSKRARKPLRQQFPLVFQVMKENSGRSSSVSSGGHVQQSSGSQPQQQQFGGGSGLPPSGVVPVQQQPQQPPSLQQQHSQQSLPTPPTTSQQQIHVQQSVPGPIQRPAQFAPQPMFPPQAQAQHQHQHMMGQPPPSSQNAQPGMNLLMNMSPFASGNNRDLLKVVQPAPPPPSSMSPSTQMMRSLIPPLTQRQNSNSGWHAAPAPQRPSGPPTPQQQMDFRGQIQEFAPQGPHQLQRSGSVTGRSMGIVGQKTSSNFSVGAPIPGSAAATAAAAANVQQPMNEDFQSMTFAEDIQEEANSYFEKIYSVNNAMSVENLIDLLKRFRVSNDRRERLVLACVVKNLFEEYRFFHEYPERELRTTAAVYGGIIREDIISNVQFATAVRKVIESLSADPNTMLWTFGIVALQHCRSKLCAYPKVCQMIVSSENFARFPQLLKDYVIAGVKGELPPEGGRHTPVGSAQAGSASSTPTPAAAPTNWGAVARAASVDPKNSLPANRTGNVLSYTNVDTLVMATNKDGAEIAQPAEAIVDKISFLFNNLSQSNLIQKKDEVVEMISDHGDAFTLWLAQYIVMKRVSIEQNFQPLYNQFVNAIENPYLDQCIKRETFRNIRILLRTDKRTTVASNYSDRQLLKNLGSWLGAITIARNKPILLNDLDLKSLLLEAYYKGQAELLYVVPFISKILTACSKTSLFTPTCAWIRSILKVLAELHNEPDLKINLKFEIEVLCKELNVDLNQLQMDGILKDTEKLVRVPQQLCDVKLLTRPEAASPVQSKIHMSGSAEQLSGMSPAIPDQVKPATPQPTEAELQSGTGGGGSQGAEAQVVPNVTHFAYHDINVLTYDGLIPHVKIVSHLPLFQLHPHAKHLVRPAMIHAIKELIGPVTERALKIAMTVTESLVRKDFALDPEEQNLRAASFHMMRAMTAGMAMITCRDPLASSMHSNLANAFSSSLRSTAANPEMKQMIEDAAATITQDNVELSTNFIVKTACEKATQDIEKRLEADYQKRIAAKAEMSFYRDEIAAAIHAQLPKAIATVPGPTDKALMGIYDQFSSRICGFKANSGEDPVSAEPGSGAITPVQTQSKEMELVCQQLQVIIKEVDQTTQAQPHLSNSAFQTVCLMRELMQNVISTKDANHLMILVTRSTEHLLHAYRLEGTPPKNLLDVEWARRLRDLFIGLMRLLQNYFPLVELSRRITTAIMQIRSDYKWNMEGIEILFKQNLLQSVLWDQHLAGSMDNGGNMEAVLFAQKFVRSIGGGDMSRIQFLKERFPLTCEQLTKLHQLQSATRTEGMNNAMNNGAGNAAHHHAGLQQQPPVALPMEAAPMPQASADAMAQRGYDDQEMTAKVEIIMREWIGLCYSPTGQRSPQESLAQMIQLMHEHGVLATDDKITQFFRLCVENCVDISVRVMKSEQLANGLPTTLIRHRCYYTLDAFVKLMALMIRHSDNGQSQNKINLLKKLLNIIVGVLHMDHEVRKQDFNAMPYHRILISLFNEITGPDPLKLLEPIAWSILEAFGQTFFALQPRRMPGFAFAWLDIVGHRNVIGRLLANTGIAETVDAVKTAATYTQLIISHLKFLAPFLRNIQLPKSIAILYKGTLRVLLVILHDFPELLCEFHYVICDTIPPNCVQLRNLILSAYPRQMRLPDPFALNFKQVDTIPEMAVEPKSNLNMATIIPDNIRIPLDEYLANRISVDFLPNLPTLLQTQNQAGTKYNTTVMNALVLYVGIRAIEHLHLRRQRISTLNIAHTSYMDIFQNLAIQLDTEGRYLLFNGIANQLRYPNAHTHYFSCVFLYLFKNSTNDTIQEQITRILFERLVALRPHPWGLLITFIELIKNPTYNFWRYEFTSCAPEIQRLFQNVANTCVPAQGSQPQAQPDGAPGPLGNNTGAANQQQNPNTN
UniProt D0PV95: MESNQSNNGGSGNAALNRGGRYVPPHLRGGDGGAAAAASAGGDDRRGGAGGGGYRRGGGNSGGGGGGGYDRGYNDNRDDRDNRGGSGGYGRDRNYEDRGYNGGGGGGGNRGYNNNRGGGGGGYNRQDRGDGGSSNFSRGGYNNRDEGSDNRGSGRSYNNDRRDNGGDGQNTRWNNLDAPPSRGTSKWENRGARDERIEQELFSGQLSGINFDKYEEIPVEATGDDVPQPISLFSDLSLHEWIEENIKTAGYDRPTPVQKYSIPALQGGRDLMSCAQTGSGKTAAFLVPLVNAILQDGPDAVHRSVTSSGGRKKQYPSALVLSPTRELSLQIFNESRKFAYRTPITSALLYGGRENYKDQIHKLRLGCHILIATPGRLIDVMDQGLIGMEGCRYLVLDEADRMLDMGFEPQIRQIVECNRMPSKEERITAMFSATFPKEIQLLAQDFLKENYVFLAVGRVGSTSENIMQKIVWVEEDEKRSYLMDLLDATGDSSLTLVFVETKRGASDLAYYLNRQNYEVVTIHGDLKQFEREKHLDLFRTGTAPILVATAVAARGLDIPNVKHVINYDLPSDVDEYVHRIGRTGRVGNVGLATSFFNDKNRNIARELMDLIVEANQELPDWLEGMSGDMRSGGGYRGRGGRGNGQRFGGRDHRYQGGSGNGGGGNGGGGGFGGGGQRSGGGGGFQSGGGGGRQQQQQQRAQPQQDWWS

T1: DCAP-2::3XFLAG (C. elegans (endogenous in embryos)) (UniProt O62255)
T1 sequence: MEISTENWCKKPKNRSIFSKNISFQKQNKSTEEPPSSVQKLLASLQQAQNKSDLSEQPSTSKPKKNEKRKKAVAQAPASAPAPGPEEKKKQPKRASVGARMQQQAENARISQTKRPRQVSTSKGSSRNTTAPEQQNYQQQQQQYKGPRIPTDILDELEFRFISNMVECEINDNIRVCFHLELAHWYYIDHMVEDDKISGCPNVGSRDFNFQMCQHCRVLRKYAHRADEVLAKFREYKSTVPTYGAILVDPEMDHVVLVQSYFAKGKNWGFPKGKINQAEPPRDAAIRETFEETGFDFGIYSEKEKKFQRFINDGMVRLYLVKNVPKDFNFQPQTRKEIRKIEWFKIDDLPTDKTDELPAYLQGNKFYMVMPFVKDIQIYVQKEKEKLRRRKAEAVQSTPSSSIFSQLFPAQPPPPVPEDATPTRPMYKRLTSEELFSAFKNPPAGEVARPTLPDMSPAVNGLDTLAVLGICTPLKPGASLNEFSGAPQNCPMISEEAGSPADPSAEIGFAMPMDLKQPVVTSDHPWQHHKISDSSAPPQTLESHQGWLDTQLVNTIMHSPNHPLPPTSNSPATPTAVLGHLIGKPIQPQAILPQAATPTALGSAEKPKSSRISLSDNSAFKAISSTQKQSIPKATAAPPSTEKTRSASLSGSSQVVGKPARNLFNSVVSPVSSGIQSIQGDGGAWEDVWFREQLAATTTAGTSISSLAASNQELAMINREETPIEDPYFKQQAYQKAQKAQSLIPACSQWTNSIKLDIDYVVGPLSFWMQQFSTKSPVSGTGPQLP

B1: EIF-3.A (protein, UniProt P34339 1-1076)
chain: MAPNYFQKPEAALKRAEELIQVGKESDALDTLHDTIKARRHKQWTTVHEQIMIKHMELCVDLKKQHLAKDALFQYKALTQQINVKSLETVVVHFLKLAEQRTEDAQKQSIEKVEEIGDLDQGDVPERLLLAVVSGAAAQDRMDRTVLAPWLRFLWDSYRNCLELLRNNAQVEQLYHTISRHSFTFCLRYQRRTEFRKLCDLLRMHLNQIQKHQYAPNVNSFRVKLTSPESLGLMQDTRLIQLDTAIQMELWQEAYKSAEDVHGMMQLSKDKDKRTVKPASYVNYYDKLALVFWKAGNSLFHAAALLQKFIIYKDMKKSFTQDEAQEQATRVLLATLSIPEGSDSPSDLSRNLDIEDQHVANMRLLSNLLRLPIAPTKNGILKEAARIGVPEAAGQTAKDLYKLLESNFSPLKVAKDVQSVLDTVTRPDHLQYVESLQAVAAVKALKQVSVIYEAISWERIRKIIPFYSDLALERLVVEASKHRIVKAQLDHRADCVRFGSSDATLAGGVDECDNNEGFTGDDTQLGVEGVRNHLEAMYTRLRGLVEGLDAEKRRKEILKKIEGQVTSYEKNRPTEIERIHRRKKMLENYKENWERVKAEKTAAAATEQAKREEAARAEEMKRLDEQNKESERKRKQAEQDEIQKKIKQDQLYKMQQNAIYQEIIKEKGLEQFRDMDPEQVLREQRERLDKERAETQRRLQQQEKNFDHHVRALHLEELNERRAVMNMRLSEAPKLHDLYEEARIAKEIAAHDSHVKLWGMWDQVRDATFDWVESVKIDNQETLEKKLSDWQAKLEAVRNNRLAERAEDRKKKRKEDAIQAKIAEERKKREEEERARLQVIEGQRRQHNDGRGRREMENSVAMQDNDWRRNPPRESLPPRETRPMRDGPTREPREFRGDRDREPREPFREVPSSKADTDNSWRSSAQPTRKPDDRRSDEFRRNDDVRRNDDVRRNDPPRPASKADTGDKWERGVKPVVSPPKTDAPSVSEPKSEGPKRFVPPHLRNRQGGGGAGGSEEQSAPARSGNSNVTSPPDRAQGLRGPPPTGRNSLPRRDGPPPRSNNTGNTGNADSGSWRK
B2: EIF-3.I (protein, UniProt Q965S8 1-327)
chain: MRPLSLKGHERALTRVRFNREGDLTFSCAKDKKPCVWYTENGERIGSYDGHNGAVWDIDVSWDTTKCVTASGDLTVKIWDAELGNCLYTINHQTPMKSCGFSYSGNLVCFTTQKMTKNLSTFQVRDLRDSSQMVEGGESFFYSQFDVNATTALFTQMDDLVTIGFESGLLQQYDLRNPDTPIHTNESVHRYSVQDLQLSPRGDFLISASRDKTAALLDVNDLKKLKQYKSERPVNSACISPNRDHICLGGGEDAMQVTQTSVSAGHFEAKIYHMVFEEEFARFKGHFGPINTMAWHPSGTIIATGGEDGYIRIQEFDEDYLGFTYDF
B3: EIF-3.K (protein, UniProt Q9XUP3 1-240)
chain: MSFEKLQKELHEAIEGVNRYNPENVADLAACVQAMVNENKYDKDIVLTILKLYQLNPEKYDEAVVRQVLLKTLMVLPSSDFALAKCLIDTNRLGSQELRRIFDLGAVLESCNFAVFWKLVKGAYKPTTNPNEPFKVPGEVPKMIKPMVGFEDAVKHYACRVISVTFQKIEKKMLSRLLGGASDKEVTALAQSFGWEAKENGDVFFVANHEGTIKTRNIDEKIQFPHVADLLTSIQPPLTL
B4: DEPS-1 (protein, UniProt Q9N303 1-619)
chain: MSERQSKYFDYQGIVISSTGQDNQDSETDLVYLIQAHGKAAPKNIMYGVSKCAFVPTNLERNFDNIEEAKNLERRSKIPLKFGEVILWNESDCDHDKRIILHIKREKPIYEASSSRNGLILKVGGVIQPTSTTSFWTPLCTVTMPETEATRAEPDVWLYAWIRFETTMKSGLDPFNMTATFESFDSCDPSDQARVCEAPWNAGSPDSKFGVWRPDPKPADSDDEIDIEPREGWHLPEDKWAEVIKMQLGLYVGERLLICKELSQFDFIIPLQKPFSRGTDKTLIYPAVGEYFHFSAIWSMQHNGFLIYELQPVPLLRQHVTSVNGNLLTRVVPASIRGLFVDKEGTLGLIDDPHHLLSFFEFHPAGYEFLKAMAEVRAVRTSENKSVRYRIVRTSGMSIFENWLRDTQFVVGPVKGIRINEDTVICAKHPNVYFKIPNNLKEGIPIGGGVQFVGKRQAGVDSEIMITECSPCPAFTCKNYSVSGDTRLFQVYLKPNCDHEQLAESDSMGFVDFRELETPCRGKFLAWVRESITVNDCRRAATIMEVCSTAICPPLIAMSANSSRATSARTTPAGSSIGSRSSIQSRASAATSVSSNRFVGPSSRRTPSGTPQSSTSSRV
B5: EIF-3.B (protein, UniProt Q9XWI6 1-725)
chain: MVEIDFNKENEEDFSDPPGFVDDVTDDVLVPDVLHKKPTIDEFEDNCVFIAGIPVVGADRLGKLQSVLKKVLERLDPAVKLYIPPSPEGGCLGVLLTEWADQRSAQFAVKSLNGYAFDKNHTFTARSFKDMKQLEAPSDHWTTPEKQAYNDVGDLWWWLQNERCRDQFAISHDKLGVPTVGVFTNMKGNDPELAGDADKAERANWTETVFTWSPHGSYLSTIHKQGIILWGGKDYARAHRFAHTNVQYIDFSPCETYLVTYAAPEESNSWGDCEKDSLRIWDVRTGELKKAFSTFELTGRTQLPTWPFFRWSFDEKYFACLKAPEKDKLEREQKINGISIFESEKFELYEGRPVNIENIKQFEWSPTSTVLAYYSECTDAVPAEFGLLQVPSMQRLRSARVHNVADAQMFWQKSGKRLAFYTMRFKKKEYRETGEVKYVGGCQYHVDIFEIDKKDVSLMNLPLSEPFIHFDWDPEGDKFCVLVGNTAKATPQVYKIEANSHAPKLVSKLDAGVHFNEVQFAPKGGWLAVLAKVSAGGNVYFIDTSLSEAKRTNVIEHPLFNKGYWDPTGRYFVTCSTLGGRAGADLGYRIFTFQGRELCRKNLDRLAQFKWRPRPPVKLSEQKQREIKKNLKKTAAKFIKQDDDEKCRASQEVVEKRRKIMAAFDIIRSRNREQLDATRDERISLRNGVDTEAQLDEDEFVDEEITIALSTSKTQAPLTEEEMRD
B6: CGH-1 (protein, UniProt Q95YF3 1-430)
chain: MSGAEQQQIVPANNGDENWKAGLNLPAKDRRFKTADVTDTKGVEFEDFCLGRDLLMGIFEKGWEKPSPIQEASIGVALTGQDILARAKNGTGKTGAYCIPVIEKIQPALKAIQAMVIVPTRELALQTSQICVELSKHIQLKVMVTTGGTDLRDDIMRLNGTVHLVIATPGRILDLMEKGVAKMEHCKTLVLDEADKLLSQDFQGILDRLINFLPKERQVMLYSATFPNTVTSFMQKHMHKPYEINLMEELTLLGVTQYYAFVQEKQKVHCLNTLFRKLQINQSIIFCNSTQRVELLAKKITEIGYSCYYIHSKMAQNHRNRVFHDFRQGNCRNLVCSDLLTRGIDIQAVNVVINFDFPRNAETYLHRIGRSGRFGHLGVAINLITYEDRHTLRRIEQELRTRIEPIPKTVDPKLYVADQQLVDAADETTA
B7: EIF-3.C (protein, UniProt O02328 1-898)
chain: MSRFFHAKEDSDSDTSSSEDEVEDQKVNKSAKFRDDLDFMAGPEEDEKRVVRAQKDKKFDELKGIIKQNRDAKSNKDLNRLLTGFDSLAKAYDKSKTVFQRQNVANPRFYIRSLVEIEDYVNKLWDDKDAKSALSKNNAKALPPLRQKLKKYIKDQQLQDLVTDYRVNPDEDGYETPEDEDDDDFGEVSESKAEKSPGKPSEKAAVSDSDSDSDDDDSSNWSSEPESNSSDDEDSVTKMEQLRRYFLKKEFRVESKDDKKEKKKRVIRVKEAVEEDDDADWTPVNREKSVVHFDPKEEVTHDVMIKKLNEVMSARGKRTTDRNQHVANLRKLLEVSEEKELGLGINVKISFCIISALFELNAKISDHMEYETFMTTLQTVNSLLDLLIGTDRVKLSVTYAEEDENLKDDTQEYRIQGSILIAVQRLDGELAKILQNADCHSNDYIEKLKAEKDMCSLIEKAEKYVELRNDSGIFDKHEVCKVYMMRIEHAYYKYQDQNEEDAGKLMDYLCNKIYTLDDEKRLRQRAMLCHVYYLAVHDKWHRARDLLLMSHMQAIVDHSDVDTQILYNRTICQLGLCAFRHGFIREAHQGLSEIQNTQRAKELLAQAVGTRQHEKTAEQEKIDRSRQVPYHMHINVELMECVYLICSMLLEIPHMASCEFEMRRRMLSRSFHYQLKQSEKASLTGPPENTREHVVAASKAMLNGDWKKCQDYIVNDKMNQKVWNLFHNAETVKGMVVRRIQEESLRTYLLTYSTVYATVSLKKLADLFELSKKDVHSIISKMIIQEELSATLDEPTDCLIMHRVEPSRLQMLALNLSDKLQTLAENNEQILEPRTGRGGYQGPGSWFPGRNERQGDKQKGSGGYQGERRGGQGQDGKRGNWGSQGGQQRRHPQKPRAF
B8: EIF-3.E (protein, UniProt O61820 1-432)
chain: MSTFDLTQRMAPFLDLHLIIPLLEFIEPRGIYDEKSLTEMHRQLLTKTNMIDSVIETYNGKPIPAAIEAKKKQIIKERDELKSKVDSVVAILEIPEVKEMMDNNRERDGNVRILEHLTQNHNFTVDMVDTLFKYSKFMYECGNYTVASVCLYYYRNLVNQADPNYLNALYGKLASEILLQEWEHARDDLLKLRAYIDANPFDTEWELVTQRAWLMHWALFVYYNYPKGRDEIIEMFLNQQPYLNAIQVLAPHLLRYLAVAVVTSKSRQKNSLKDLVKVIDIERHSYKDPVTDFLTCLYIKYDFDEAQEMLQKCEEVLSNDFFLTAVLGDFRESARLLIFEMFCRIHQCITIEMLARRLNMSQEEAERWIVDLIRTYRIEGAKIDSKLGQVVMGVKSVSIHEQVMENTKRLTLRAQQIALQLEKGRQDKVKAT
B9: CCF-1 (protein, UniProt Q17345 1-310)
chain: MASSSSGGAGGAGGASGAPEVKIHNVYMSNVEEEFARIRGFVEDYPYVAMDTEFPGVVATPLGTFRSKEDFNYQQVFCNVNMLKLIQVGFAMVNDKGELPPTGDVWQFNFNFSFAEDMFSHESVEMLRQAGIDFTLLQNNGIPTAVFGELLTTSGLITDPRITWLTFSSGYDFGYLLKSITLGDLPKEESTFFMCHKTLFPTSFDIKILLRTPNCASAKLKGGLQEVADQLDVKRQGVRHQAGSDALLTAATFFKIKKQFFGDNWNQIAPLICGHMFGLGSSLSLFHSSGSTSRLGDETPQGLIGVPQQA

The molecules below were run against T1, DCAP-2::3XFLAG (C. elegans (endogenous in embryos)) (assay: affinity purification with mass spectrometry).

**Q.** NTL-9 (from UniProt Q18224) was tested. Which binding did it give?
**A.** binds

**Q.** How did the binding turn out when EDC-3 (from UniProt Q21740) was run?
**A.** binds

**Q.** How did the binding turn out when “NTL-1/LET-711 (from UniProt Q20937 1-2641)” was run?
**A.** binds

**Q.** LAF-1 (from UniProt D0PV95 1-708) was tested. Which binding did it give?
**A.** binds

**Q.** How did the binding turn out when B1 was run?
**A.** binds

**Q.** With B2 as the molecule, how does the binding read?
**A.** binds

**Q.** B3 was tested. Which binding did it give?
**A.** binds

**Q.** How did the binding turn out when B4 was run?
**A.** binds

**Q.** For B5, which binding is on record?
**A.** binds

**Q.** With B6 as the molecule, how does the binding read?
**A.** binds

**Q.** B7 was tested. Which binding did it give?
**A.** binds

**Q.** With B8 as the molecule, how does the binding read?
**A.** binds

**Q.** With B9 as the molecule, how does the binding read?
**A.** binds
